Measured data: PubChem BioAssay AID1259405 (NCATS, 2018)
Here is an unselected part of about 50,000 reagents tested. Of all reagents, about 4,000 (8%) got an active call. 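Mouse siRNA library applied to hamster cells; one well for each siRNA.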 Reagents against one gene are numbered here. Not all columns of the deposit are shown. Reagent sequences are not shown.

Test: 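Silenced genes that increase secreted GFP made by CHO cells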 (primary screen)
System: Chinese hamster CHO-K1 ovary cells with stable secreted eGFP expression
Reagent: single siRNA against mouse genes, 0.8 pmol siRNA per well (2 µl of 400 nM stock)
Duration: 3 days
Measurement: 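Per-well intracellular GFP measured by laser scanning cytometry, plus viability from ATP luminescence, each relative to plate median of non-targeting control wells, in %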
Direction: GFP, % of control: higher = more GFP per well, higher productivity
Hit rule: 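a knock-down is called active if GFP reaches 120% or more of non-targeting control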

GFP, % of control, by target gene and reagent
Pcdhb7 (protocadherin beta 7): #1 84.4 inactive; #2 46.5 inactive; #3 86.5 inactive
Scgb2b24 (secretoglobin, family 2B, member 24): #1 48.7 inactive; #2 83.6 inactive; #3 107 inactive
Or5b21 (olfactory receptor family 5 subfamily B member 21): #1 99.1 inactive; #2 85.7 inactive; #3 97.6 inactive
Mrpl53 (mitochondrial ribosomal protein L53): #1 72.3 inactive; #2 61.7 inactive; #3 69.6 inactive
Ebf2 (early B cell factor 2): #1 103 inactive; #2 203 active; #3 91.1 inactive
Tmem223 (transmembrane protein 223): #1 123 active; #2 127 active; #3 132 active
Fam180a (family with sequence similarity 180, member A): #1 59.9 inactive; #2 46 inactive; #3 130 active
Neu2 (neuraminidase 2): #1 88.7 inactive; #2 94.7 inactive; #3 54.4 inactive
Cfap251 (cilia and flagella associated protein 251): #1 83.2 inactive; #2 89.2 inactive; #3 87.4 inactive
Suz12 (SUZ12 polycomb repressive complex 2 subunit): #1 90.8 inactive; #2 99.8 inactive; #3 112 inactive
Insyn1 (inhibitory synaptic factor 1): #1 123 active; #2 94.2 inactive; #3 91.6 inactive
Cts6 (cathepsin 6): #1 61 inactive; #2 16.2 inactive; #3 74 inactive

Records listed above called active, once more:
GFP, % of control, by target gene and reagent
Ebf2 (early B cell factor 2): #2 203 active
Tmem223 (transmembrane protein 223): #1 123 active; #2 127 active; #3 132 active
Fam180a (family with sequence similarity 180, member A): #3 130 active
Insyn1 (inhibitory synaptic factor 1): #1 123 active
